# PMC12040169 (PLOS Biology, 2025)
# The other results are listed elsewhere or left out.
# Tested on: T1, CTL2-GFP (C. trachomatis L2/434/Bu, GFP-expressing)
# T1 construct: L2/434/Bu, GFP-expressing
# Design: species or system HeLa; Intracellular C. trachomatis growth in HeLa cells, bulk GFP fluorescence relative to DMSO
# Conditions: bulk GFP, single well; 28.5 h, 10 µM; inhibitor
row,SMILES,% of control remaining
1,OC1(C2CNc3ccccc3C2)CCNCC1 (centres unmarked) [CBK283847],102.438%
2,CC(C)C(CNCc1ccsc1)c1ccnn1C (centres unmarked) [CBK304821],92.3342%
3,COc1ccc(NC(=O)c2sc(Cl)nc2C)cc1 [CBK057902],105.257%
4,CC(C)[C@@H](CO)Nc1nccnc1-c1cccs1 [CBK089024],163.003%
5,Clc1ccc(CN2CCN(c3nccnc3OCCN3CCOCC3)CC2)cc1Cl [CBK082884T],122.601%
6,CC(=O)NC(CSc1cc(C)nc2ccccc12)C(=O)O (centres unmarked) [CBK286755],129.437%
7,CSc1nnc(N(C)S(=O)(=O)c2ccc(C)cc2)s1 [CBK155272],113.545%
8,COc1n[nH]c(CO)c1Cc1c(Cl)cccc1Cl [CBK092283T],94.6716%
9,CC1CCCC(C)N1CC(O)COCc1ccc2c(c1)OCO2 (centres unmarked) [CBK263134C],100%
10,N#Cc1ccccc1N1CCN(c2cncc(-c3ccc(CO)cc3)n2)CC1 [CBK037383],112.619%
11,Fc1ccc(N2CCN(Cc3cccc(OCc4ccccc4)c3)CC2)cc1 [CBK261916],95.4061%
12,O=C(C(Cc1ccccc1)N1C(=O)C2CCCCC2C1=O)N1CCN(Cc2ccc3c(c2)OCO3)CC1 (centres unmarked) [CBK264648],113.587%
13,COc1ccc(CC(=O)N2CC[C@H]3NC(=O)N(c4ccccc4)C(=O)[C@H]32)cc1 [CBK289278],121.357%
14,FC(F)(F)c1cc(/C=C/c2cccs2)n[nH]1 [CBK020924],93.1903%
15,N#CC1(NC(=O)CN2CCOC(Cn3cccn3)C2)CCCC1 (centres unmarked) [CBK304911],87.2745%
16,Cc1ccccc1C(=O)NCCCNC(=O)c1ccccn1 [CBK269172],153.128%
17,O=C(O)CCCn1c(-c2cccc([N+](=O)[O-])c2)nc(=S)c2c1CCCC2 [CBK265657],100%
18,CC1CC1C(=O)N1CCCC(c2cc3cccnc3[nH]2)C1 (centres unmarked) [CBK282156],154.489%
19,CCN(CC)CC(C)C(O)(c1ccccc1)c1ccccc1 (centres unmarked) [CBK012065C],149.061%
20,COc1ccc(CCCC(=O)NCc2sc(-c3ccccc3)nc2C)cc1OC [CBK092353],99.9865%
21,COCCCn1c(=O)[nH]c2ncc(-c3ccc(O)cc3)nc21 [CBK064425],170.815%
22,O=C(c1ccco1)N1CCN(CC(=O)N2c3ccccc3OCC2c2ccccc2)CC1 (centres unmarked) [CBK239722],108.064%
23,NS(=O)(=O)c1ccc(CNC(=O)c2ccc(-c3ccc(OC(F)(F)F)cc3)nc2)cc1 [CBK156246],115.465%

# Two compounds drawn at random from the list so far, as already listed:
row,SMILES,% of control remaining
3,COc1ccc(NC(=O)c2sc(Cl)nc2C)cc1 [CBK057902],105.257%
2,CC(C)C(CNCc1ccsc1)c1ccnn1C (centres unmarked) [CBK304821],92.3342%
